Laboratory results as given in US20060153931A1, “Prevention of flap necrosis in plastic surgery” (priority 2001, published 2006).

Test system: skin flaps based on the epigastric artery and vein
Test: Rat epigastric skin flap model, ET-1 induced pedicle vasoconstriction (Background Example 1)
Type: in vivo, rats
Details: for flap blood flow: laser Doppler
[1] = 30 min after application, 2% lidocaine or 10^−4M ENO, 15 min after ET-1, mean±SEM

`CCN(CC)CC(=O)Nc1c(C)cccc1C` [lidocaine] was tested. Which “overall effect on arterial dilation and blood flow (in words)” value (2% lidocaine vs 10^−4M ENO) did it give?
Its value is “faster effect”.

And the arterial diameter (1 min after application (lidocaine: within 1 min), 2% lidocaine or 10^−4M ENO, 15 min after ET-1, mean±SEM)?
The arterial diameter was 101±6 % of baseline.

What about the flap blood flow (2 min after application, 2% lidocaine or 10^−4M ENO, 15 min after ET-1, mean±SEM) of the same compound?
The flap blood flow was 87±13 % of baseline.

And the flap blood flow [1]?
Its flap blood flow is 55±7 % of baseline.

What about the arterial diameter [1] of the same compound?
Its arterial diameter is 82±6 % of baseline.

And the vein diameter [1]?
The vein diameter was 68±7 % of baseline.
